Source: PubChem BioAssay AID1224826 (NIAID, 2016)
Test: 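Genes that change LPS-induced Tnf promoter activity in mouse macrophages when knocked down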 (primary screen). Cell system: RAW264.7 G9 macrophages from mouse bearing reporters for p65 (GFP) and the Tnf promoter (mCherry). Knock-down reagent: siRNA pool against mouse genes, 100 nM. Time to read-out: 16 h of LPS stimulation, after 2 days of siRNA transfection. Challenge: bacterial lipopolysaccharide (Salmonella minnesota R595), 10 ng/ml. Read-out: 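Imaged Tnf reporter mCherry in nuclei, minus background, normalised per plate to the median and expressed as robust z-scores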. Direction: Tnf reporter robust z-score: higher = stronger Tnf promoter reporter signal after LPS. Call rule: 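a well counts as active at a score of -1.3 or below (Tlr4 knock-down control median) or above 3 (raised signal); controls and wells holding fewer than 50 cells are excluded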. Calls: active = Tnf reporter clearly lowered or raised; inactive = no clear change in Tnf reporter.
This is one part, drawn at random, of about 17,000 deposited reagents. About 1,110 of them (6.6%) count as active. 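Active means lowered or raised reporter signal; replicate intensities are raw and not normalised per plate.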 Not all columns of the deposit are shown. No sequences are given here.

gene knocked down | Tnf reporter robust z-score | fewer than 50 cells in well | Outcome
Mbtd1 (mbt domain containing 1) | -0.53 | enough cells in well | inactive
Zfp59 (zinc finger protein 59) | – | fewer than 50 cells per well; well left out of calls | inactive
Dok2 (docking protein 2) | -0.54 | enough cells in well | inactive
Ttc33 (tetratricopeptide repeat domain 33) | – | fewer than 50 cells per well; well left out of calls | inactive
Or8a1b (olfactory receptor family 8 subfamily A member 1B) | 0.61 | enough cells in well | inactive
C3ar1 (complement component 3a receptor 1) | -0.35 | enough cells in well | inactive
Slc36a3 | – | fewer than 50 cells per well; well left out of calls | inactive
Prkcz (protein kinase C, zeta) | 1.28 | enough cells in well | inactive
Pcdh11x (protocadherin 11 X-linked) | 0.15 | enough cells in well | inactive
Agap3 (ArfGAP with GTPase domain, ankyrin repeat and PH domain 3) | 1.16 | enough cells in well | inactive
Meaf6 (MYST/Esa1-associated factor 6) | -0.52 | enough cells in well | inactive
Aoah (acyloxyacyl hydrolase) | -1.35 | enough cells in well | active
Prxl2b (peroxiredoxin like 2B) | – | fewer than 50 cells per well; well left out of calls | inactive
Liat1 (ligand of ATE1) | 3.15 | enough cells in well | active
Tprn (taperin) | 1.54 | enough cells in well | inactive
Taf8 (TATA-box binding protein associated factor 8) | 0.38 | enough cells in well | inactive
H2-Oa (histocompatibility 2, O region alpha locus) | -0.39 | enough cells in well | inactive
Psg21 (pregnancy-specific beta-1-glycoprotein 21) | -0.34 | enough cells in well | inactive
Dhrs11 (dehydrogenase/reductase 11) | -1.44 | enough cells in well | active
Fstl5 (follistatin-like 5) | -0.24 | enough cells in well | inactive

Next part; the last 3 above are carried over.
gene knocked down | Tnf reporter robust z-score | fewer than 50 cells in well | Outcome
Psg21 (pregnancy-specific beta-1-glycoprotein 21) | -0.34 | enough cells in well | inactive
Dhrs11 (dehydrogenase/reductase 11) | -1.44 | enough cells in well | active
Fstl5 (follistatin-like 5) | -0.24 | enough cells in well | inactive
Prtn3 (proteinase 3) | 2.4 | enough cells in well | inactive
Tex47 (testis expressed 47) | 0.91 | enough cells in well | inactive
Or13p10 (olfactory receptor family 13 subfamily P member 10) | -0.97 | enough cells in well | inactive
Gna11 (guanine nucleotide binding protein, alpha 11) | 1.04 | enough cells in well | inactive
Tspo (translocator protein) | 2.55 | enough cells in well | inactive
Tssk6 (testis-specific serine kinase 6) | 0.25 | enough cells in well | inactive
Prkaa2 (protein kinase, AMP-activated, alpha 2 catalytic subunit) | -0.58 | enough cells in well | inactive
Syngr1 (synaptogyrin 1) | -1.39 | enough cells in well | active
Dhx30 (DExH-box helicase 30) | – | fewer than 50 cells per well; well left out of calls | inactive
Tubgcp5 (tubulin, gamma complex component 5) | 0.16 | enough cells in well | inactive
Rpl12 (ribosomal protein L12) | -0.64 | enough cells in well | inactive
Fstl1 (follistatin-like 1) | -1.02 | enough cells in well | inactive
Hmga2 (high mobility group AT-hook 2) | -1.08 | enough cells in well | inactive
4930555G01Rik (RIKEN cDNA 4930555G01 gene) | – | fewer than 50 cells per well; well left out of calls | inactive
Slc9b2 | -0.63 | enough cells in well | inactive
Anxa7 (annexin A7) | -0.54 | enough cells in well | inactive
Uqcrfs1 | -0.53 | enough cells in well | inactive
Zfx (zinc finger protein X-linked) | -0.37 | enough cells in well | inactive
Ciz1 (CDKN1A interacting zinc finger protein 1) | -1.2 | enough cells in well | inactive
Syp (synaptophysin) | 0.93 | enough cells in well | inactive
